Values of other authors, collected in US9801907B2, “Film-coated and/or granulated calcium-containing compounds and use therof in pharmaceutical compositions” (Takeda Nycomed AS, priority 2005, dated 2017).

Conditions: sucrose as comparison
For OC[C@@H](O)[C@@H](O[C@H]1O[C@H](CO)[C@@H](O)[C@H](O)[C@H]1O)[C@H](O)[C@@H](O)CO [Maltitol], the “sweetening effect (compared to sucrose)” value is listed as at least 1. In the case of OC[C@@H](O)[C@@H](O)[C@H](O)[C@@H](O)CO [Sorbitol], the “sweetening effect (compared to sucrose)” value is given as 0.55. For OC[C@@H](O)[C@H](O)[C@@H](O)CO [Xylitol], the “sweetening effect (compared to sucrose)” value is given as 1. For Isomalt, the “sweetening effect (compared to sucrose)” value is listed as over 0.5.
